{"source": "paper PMC11371640", "about": "“Structural deficits in key domains of Shank2 lead to alterations in postsynaptic nanoclusters and to a neurodevelopmental disorder in humans” (Molecular Psychiatry, 2022)", "binders": {"B1": {"name": "synthetic peptide of the C-terminal PDZ ligand of CIRL1/latrophilin (peptide)", "peptide": "PGPDGDGQMQLVTSL", "notes": "CIRL1/latrophilin, C-terminal PDZ ligand (15 residues), free N- and C-terminus; also called CIRL1 peptide; source: synthetic peptide (Genscript)"}, "B2": {"name": "His6-SUMO-tagged SH3 to PDZ domains of Shank2 (R520-D727), WT (domain or fragment, UniProt Q9UPX8-3 520-727)", "chain": "RKLYSAVPGRLFVAVKPYQPQVDGEIPLHRGDRVKVLSIGEGGFWEGSARGHIGWFPAECVEEVQCKPRDSQAETRADRSKKLFRHYTVGSYDSFDTSSDCIIEEKTVVLQKKDNEGFGFVLRGAKADTPIEEFTPTPAFPALQYLESVDEGGVAWQAGLRTGDFLIEVNNENVVKVGHRQVVNMIRQGGNHLVLKVVTVTRNLDPDD"}, "B3": {"name": "His6-SUMO-tagged Shank2-SAM domain (T1780-R1849), WT (domain or fragment, UniProt Q9UPX8-3 1780-1849, looked up)", "chain": "TKPVHLWTKPDVADWLESLNLGEHKEAFMDNEIDGSHLPNLQKEDLIDLGVTRVGHRMNIERALKQLLDR", "notes": "Shank2 SAM domain, residues T1780-R1849; numbers count on: NM_012309.5 (isoform of 1849 residues); also called SUMO-SAM fusion; WT SAM domain; source: E. coli BL21(DE3), purified (Ni-NTA agarose, G-25); not shown: His6, N-terminal, kept; SUMO, N-terminal, kept"}, "B4": {"name": "His6-SUMO-tagged Shank2-SAM domain (T1780-R1849), L1800W (domain or fragment, UniProt Q9UPX8-3 1780-1849, looked up)", "chain": "B3 chain with L21W", "notes": "Shank2 SAM domain, residues T1780-R1849, patient variant L1800W; numbers count on: NM_012309.5 (isoform of 1849 residues); also called L1800W mutant; p.L1800W SAM domain; source: E. coli BL21(DE3), purified (Ni-NTA agarose, G-25); not shown: His6, N-terminal, kept; SUMO, N-terminal, kept"}}, "key": {"[1]": {"target": "T1, His6-SUMO-tagged SH3 to PDZ domains of Shank2 (R520-D727), G643R (not stated (human or rat cDNA cloned)) (UniProt Q9UPX8)", "T1 sequence": "B2 chain with G124R", "test": "condition: 1 mM peptide in the syringe, 22 µM protein in the cell; ITC; peptide in the syringe (200 µM; 1 mM for G643R), His6-SUMO SH3-PDZ protein in the cell (20-30 µM); 25 °C; 50 mM Tris-HCl pH 8.0, 100 mM NaCl, 1 mM EDTA; 1:1 binding model; both purified"}, "[2]": {"target": "His6-SUMO-tagged SH3 to PDZ domains of Shank2 (R520-D727), WT (not stated (human or rat cDNA cloned)) (UniProt Q9UPX8)", "test": "turbidity (absorbance at 350 nm); His6-SUMO-tagged SAM domains, 10 µM, mixed with Zn2+ in 96-well plates (200 µl); absorbance after 10 min or every 10 s with 10 µM Zn2+; 0.5 M NaCl, 20 mM Tris/HCl pH 7.5; both purified"}, "[3]": {"target": "His6-SUMO-tagged Shank2-SAM domain (T1780-R1849), WT (not stated (human or rat cDNA cloned)) (UniProt Q9UPX8)", "test": "turbidity (absorbance at 350 nm); His6-SUMO-tagged SAM domains, 10 µM, mixed with Zn2+ in 96-well plates (200 µl); absorbance after 10 min or every 10 s with 10 µM Zn2+; 0.5 M NaCl, 20 mM Tris/HCl pH 7.5; both purified"}, "[4]": {"target": "His6-SUMO-tagged Shank2-SAM domain (T1780-R1849), L1800W (not stated (human or rat cDNA cloned)) (UniProt Q9UPX8)", "test": "turbidity (absorbance at 350 nm); His6-SUMO-tagged SAM domains, 10 µM, mixed with Zn2+ in 96-well plates (200 µl); absorbance after 10 min or every 10 s with 10 µM Zn2+; 0.5 M NaCl, 20 mM Tris/HCl pH 7.5; both purified"}}, "note": "Changes are numbered by the printed parent chain. Names may count otherwise. Results are given in words; binding and its absence hold for the method and conditions named. Tags and fused reporters may be left off the sequences shown.", "data": [{"binder": "B1", "values": [{"measurement": "binding", "setting": "[1]", "result": "no binding"}]}, {"binder": "B2", "values": [{"measurement": "binding", "setting": "[2]", "result": "no binding (tested: 10 µM protein with 10 µM Zn2+)"}]}, {"binder": "B3", "values": [{"measurement": "binding", "setting": "[3]", "result": "no binding (condition: 2 µM Zn2+)"}]}, {"binder": "B4", "values": [{"measurement": "binding", "setting": "[4]", "result": "no binding (condition: 2 µM Zn2+)"}]}]}
